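Assay of Toxoplasma gondii numbers, read through their beta-galactosidase reporter with a colour substrate. Concentration: 50 µM. Higher reads as fewer parasites (inferred from which compounds were picked for retests). Size under these conditions: about 18,000 compounds, about 170 of them at 50% or above in at least one test.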

The filed quantity is “Percent Effect” (%).
The controls that fix the scale are not given in the record; negative values are as filed.
Compounds were drawn at random from those tested, without regard to their results.

SMILES | effect
COC(=O)[C@H](C)NC(=O)c1noc2c1CCCCC2 | 12.95
O=C(COCc1ccccc1)N[C@@H]1CCOC[C@H]1O | -24.49
COCCN(CCC#N)Cc1nc2ccccc2n1C | -0.8587
NS(=O)(=O)C1CCN(C(=O)NCc2ccccc2)CC1 | 0.2028
CCOCCn1cnn(C(C)(C)C)c1=O | -1.818
CC(C)Cn1nnnc1SC(C)C#N (stereo not shown) | 13.82
O=C(CC1(O)CCCCC1)NCc1ncccc1F | -3.832
CN(C)S(=O)(=O)c1ccc(C(=O)Nc2nncs2)o1 | 1.795
Cc1ccc(F)c(C(=O)NCCc2n[nH]c(N)n2)c1Cl | 1.737
OCC(c1cccc(Cl)c1)N1CCNCC1 (stereo not shown) | 0.6361
Clc1cnn(CCN2CCN(C3CCNC3)CC2)c1 (stereo not shown) | 12.09
Cc1ccn(CC(=O)N2CCC3(CCC3O)CC2)n1 (stereo not shown) | 36.73
NCC(Cc1ccc(F)c(F)c1)C(N)=O (stereo not shown) | -10.71
COC(=O)NC(C)C(=O)NCC1(Cn2ccnc2)CC1 (stereo not shown) | 15.76
Cc1nc(CCNS(=O)(=O)c2cccnc2)no1 | -0.1082
Cc1ncc(C(=O)NCC(C)CO)c(O)c1Br (stereo not shown) | -2.32
CCC(Cn1ccnc1)NC(=O)c1cnc(SC)nc1 (stereo not shown) | -25.29
CSC1=NCCN1C(=O)c1ccc(N2CCCC2)nc1 | 0.4911
CCNC(=O)C(C)N (stereo not shown) | -4.292
NCCN1CCN(c2cccc(C(F)(F)F)c2)CC1 | -2.434
CCC(C)(C)C(=O)NCC(C)(C)N1CC[S+]([O-])CC1 | 19.95
CCC(=O)OC(C)C(=O)Nc1ccc(C(N)=O)cc1 (stereo not shown) | -0.1254
CC(C)C1CN(C)CCN1Cc1ccccn1 (stereo not shown) | 1.313
O=C(c1cccc(F)c1Cl)N1CCCC(CO)C1 (stereo not shown) | 8.865
C[C@H](N)c1cccc(OCCN(C)C)c1 | -19.66
CN(C(=O)CN1CCCC1=O)C1CCCC1 | 5.047
CSc1cccc(CN(C)C(=O)CNC2CC2)c1 | 17.01
CS(=O)(=O)NCCCN1CCc2ccccc21 | 4.96
CCS(=O)(=O)NCCNC(C)(C)c1nccs1 | -2.417
CN(C)CCCN(CCC#N)C(=O)c1ccccn1 | 5.806
Cc1cc(C(=O)N(C)C2CCN(C)C2)cc(C)n1 (stereo not shown) | -9.318
COCCCN1CCCN(C(=O)c2sccc2C)CC1 | -3.064
CCc1ccccc1OCCN1CCOCC(O)C1 (stereo not shown) | -6.376
CCNC(=O)c1cn2ccc(C)cc2n1 | -4.944
CCN(C)c1ccc(CO)cc1 | 25.39
Cc1ccc(CNC(=O)N2Cc3ccccc3C2)cn1 | -21.35
CC(C)(C(=O)NCc1cccnc1)c1ccccc1 | 0.7571
COCC(C)NCc1ccccc1CN1CCCC1=O (stereo not shown) | -16.77
CC(C)c1cc(C(=O)N2CC[C@@H](N)C2)nn1C(C)(C)C | 1.953
CN(C)CCNCCOCCO | -0.7264
Cn1nc2n(c1=O)C(=O)N(c1ccccc1)C2 | -15.41
CN(C)C(=O)c1cccc(S(C)(=O)=O)c1 | 8.722
c1ccc(CNC2CCNC2)cc1 (stereo not shown) | -23.38
C1CC(NC2CCOCC2)CCN1 | -7.943
O=C(Cc1ccc2c(c1)OCCO2)Nc1nncs1 | -14.18
OCC1(Cc2ccccc2)CCNC1 (stereo not shown) | -17.93
CC(C)CN(CC(N)=O)S(=O)(=O)N(C)C1CCCCC1 | -18.64
CN(C)c1nc(-c2ccc3c(c2)CCC(=O)N3)cs1 | 0.4673
Cc1cccc(NC(=O)c2cnccn2)n1 | -13.12
CC(C)(CNC(=O)c1[nH]c2ccccc2c1Cl)C(N)=O | 1.647
CCC(Cn1ccnc1)NC(=O)CCn1cc(C)cn1 (stereo not shown) | -8.674
COC(=O)c1ccc(NC(C)=O)cc1 | 6.6
CCC[C@H]1CN(C(=O)CCCc2cn[nH]c2)C[C@@H]1N | -1.664
CC1CN(C(=O)NCc2ccsc2)CCO1 (stereo not shown) | 9.536
CCCc1cc(C(=O)NCC2COCCO2)cs1 (stereo not shown) | -12.85
O=C(CC(O)c1cccc(F)c1)N1CCC[C@H]1CO (stereo partly shown) | 26.37
NC1CCN(Cc2cc(O)c3cc(F)ccc3n2)C1 (stereo not shown) | -7.467
CCN(CC)S(=O)(=O)c1ccc(CCN)s1 | 3.52
COc1cccc(Nc2ccc(N)nc2)c1 | -7.286
O=C1NCCNC1c1ccccc1 (stereo not shown) | -2.202
COc1ccc(C(C#N)N2CCNCC2)cc1 (stereo not shown) | 12.22
Cc1ccn(Cc2ncnn2CC(C)C)c(=O)c1C#N | -2.311
CCCC(O)CNS(=O)(=O)c1ccc(C(=O)NC)cc1 (stereo not shown) | -8.794
Cn1c(=O)n(CC(=O)NC2CC2)c2ccccc21 | 5.278
O=C(CCc1cc(F)ccc1Br)N1CC[S+]([O-])CC1 | -14.54
Cc1ccc(C(=O)NCC2(C)CCOCC2)cn1 | -15.79
CCn1ncnc1CN1C[C@H](O)[C@@H](N2CCCCC2)C1 | -1.56
COCCOC1CCN(c2cccc(C)n2)CC1 | 3.721
NCCCSc1ccccn1 | -5.046

Source: ChEMBL document CHEMBL3988442, “University of Dundee, Small-Polar-MMV Screening Library” (2021).